From article PMC10830565 (2024) come the findings set out here.

Protein sequences, listed by entry. Tags and fused reporters are not part of them.
UniProt Q6EVK6: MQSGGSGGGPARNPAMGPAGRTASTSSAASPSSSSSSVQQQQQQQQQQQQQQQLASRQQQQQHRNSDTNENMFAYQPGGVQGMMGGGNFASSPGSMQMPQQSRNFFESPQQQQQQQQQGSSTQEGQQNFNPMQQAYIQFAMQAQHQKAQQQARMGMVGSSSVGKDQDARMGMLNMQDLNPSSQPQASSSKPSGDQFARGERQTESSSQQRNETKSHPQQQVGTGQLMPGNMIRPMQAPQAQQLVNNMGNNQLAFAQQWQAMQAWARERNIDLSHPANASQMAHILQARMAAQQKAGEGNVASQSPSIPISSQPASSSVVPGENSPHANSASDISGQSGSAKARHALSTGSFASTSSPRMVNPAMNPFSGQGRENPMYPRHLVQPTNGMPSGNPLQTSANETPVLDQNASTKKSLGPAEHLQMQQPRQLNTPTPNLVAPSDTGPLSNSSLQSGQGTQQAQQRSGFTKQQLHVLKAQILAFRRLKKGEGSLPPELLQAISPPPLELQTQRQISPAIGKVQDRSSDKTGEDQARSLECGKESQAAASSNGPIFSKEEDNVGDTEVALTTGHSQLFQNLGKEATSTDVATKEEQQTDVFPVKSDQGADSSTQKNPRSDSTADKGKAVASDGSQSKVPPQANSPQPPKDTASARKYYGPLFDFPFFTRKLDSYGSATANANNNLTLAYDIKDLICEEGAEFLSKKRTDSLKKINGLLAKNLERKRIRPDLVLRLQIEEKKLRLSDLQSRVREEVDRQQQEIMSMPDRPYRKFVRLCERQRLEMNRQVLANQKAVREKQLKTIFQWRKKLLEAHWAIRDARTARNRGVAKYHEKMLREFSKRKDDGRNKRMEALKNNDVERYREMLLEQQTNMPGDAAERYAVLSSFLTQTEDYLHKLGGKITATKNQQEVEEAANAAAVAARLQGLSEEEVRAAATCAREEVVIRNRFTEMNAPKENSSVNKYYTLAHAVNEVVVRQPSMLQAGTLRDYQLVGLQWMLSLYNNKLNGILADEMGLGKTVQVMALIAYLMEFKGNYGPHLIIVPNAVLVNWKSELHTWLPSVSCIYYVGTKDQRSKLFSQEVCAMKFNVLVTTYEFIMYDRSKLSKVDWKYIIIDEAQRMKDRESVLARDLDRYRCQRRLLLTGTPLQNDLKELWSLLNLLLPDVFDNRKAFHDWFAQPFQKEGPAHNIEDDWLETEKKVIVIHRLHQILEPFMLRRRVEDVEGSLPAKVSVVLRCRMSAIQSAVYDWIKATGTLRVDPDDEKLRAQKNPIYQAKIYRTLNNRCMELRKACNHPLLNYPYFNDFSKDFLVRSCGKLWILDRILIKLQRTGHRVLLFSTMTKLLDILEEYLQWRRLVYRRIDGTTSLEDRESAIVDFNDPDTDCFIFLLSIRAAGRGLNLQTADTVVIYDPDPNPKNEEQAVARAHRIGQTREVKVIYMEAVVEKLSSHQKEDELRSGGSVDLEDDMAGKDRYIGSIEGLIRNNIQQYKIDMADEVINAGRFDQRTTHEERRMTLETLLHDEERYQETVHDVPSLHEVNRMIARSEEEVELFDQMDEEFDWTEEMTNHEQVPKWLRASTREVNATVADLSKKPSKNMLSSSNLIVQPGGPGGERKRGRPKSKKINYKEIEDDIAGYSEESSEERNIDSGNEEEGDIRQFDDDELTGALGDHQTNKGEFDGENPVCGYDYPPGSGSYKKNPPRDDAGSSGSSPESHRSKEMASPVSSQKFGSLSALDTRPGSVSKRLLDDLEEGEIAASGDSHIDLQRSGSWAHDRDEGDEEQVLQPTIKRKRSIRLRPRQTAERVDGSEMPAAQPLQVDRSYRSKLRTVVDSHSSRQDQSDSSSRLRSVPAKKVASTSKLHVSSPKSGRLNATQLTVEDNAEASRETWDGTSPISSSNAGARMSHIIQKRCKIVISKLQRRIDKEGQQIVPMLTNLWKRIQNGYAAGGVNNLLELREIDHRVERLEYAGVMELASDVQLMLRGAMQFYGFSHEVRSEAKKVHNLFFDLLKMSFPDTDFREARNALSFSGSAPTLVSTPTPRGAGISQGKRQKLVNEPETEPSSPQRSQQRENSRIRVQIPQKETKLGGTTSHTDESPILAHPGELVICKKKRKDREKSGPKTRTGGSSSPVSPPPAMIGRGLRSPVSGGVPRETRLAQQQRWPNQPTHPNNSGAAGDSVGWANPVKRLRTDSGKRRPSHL

This assay deals with T1, SWI3C-3×FLAG (Arabidopsis thaliana) (UniProt Q9XI07).
T1 sequence: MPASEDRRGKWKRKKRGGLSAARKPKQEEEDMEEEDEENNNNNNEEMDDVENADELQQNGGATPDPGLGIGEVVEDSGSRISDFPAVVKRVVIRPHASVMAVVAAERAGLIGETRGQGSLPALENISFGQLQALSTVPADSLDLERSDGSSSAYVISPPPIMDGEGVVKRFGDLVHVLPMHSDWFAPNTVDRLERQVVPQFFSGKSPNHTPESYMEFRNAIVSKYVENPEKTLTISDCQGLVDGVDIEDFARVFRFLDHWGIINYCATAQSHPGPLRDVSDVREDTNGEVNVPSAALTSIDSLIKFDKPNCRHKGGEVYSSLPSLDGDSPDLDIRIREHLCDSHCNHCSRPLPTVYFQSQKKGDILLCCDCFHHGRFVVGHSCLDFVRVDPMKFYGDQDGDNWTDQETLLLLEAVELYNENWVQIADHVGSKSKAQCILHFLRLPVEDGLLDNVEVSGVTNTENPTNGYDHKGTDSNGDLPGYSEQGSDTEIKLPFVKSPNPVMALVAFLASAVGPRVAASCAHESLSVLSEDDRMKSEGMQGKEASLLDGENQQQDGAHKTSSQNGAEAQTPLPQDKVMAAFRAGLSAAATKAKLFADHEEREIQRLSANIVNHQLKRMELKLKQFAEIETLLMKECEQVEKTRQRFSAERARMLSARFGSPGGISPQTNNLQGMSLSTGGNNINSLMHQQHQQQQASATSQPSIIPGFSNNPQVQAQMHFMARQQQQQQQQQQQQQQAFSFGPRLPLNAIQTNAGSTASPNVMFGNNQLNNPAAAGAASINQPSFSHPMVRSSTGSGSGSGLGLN
In words: co-IP; Arabidopsis plants with SWI3C-3×FLAG and BRM-GFP, WT and bcl7a bcl7b backgrounds; co-IP with anti-FLAG antibody, immunoblot.

Results are given in words; binding and its absence hold for the method and conditions named. In cells and extracts the contact can be indirect. Some results given as binding are weak or reduced against the parent protein; the word gives no strength. Tags and fused reporters may be left off the sequences shown.

With BRM-GFP (from UniProt Q6EVK6 1-2193), the binding result was “binds”.
